Assay results taken from paper PMC11414381.
No constants are given. Whether binding was seen depends on the method and setting. In cells and extracts the contact can be indirect. Some results given as binding are weak or reduced against the parent protein; the word gives no strength.

The chains behind the UniProt entries cited, without tags or fusion partners.
UniProt P05412: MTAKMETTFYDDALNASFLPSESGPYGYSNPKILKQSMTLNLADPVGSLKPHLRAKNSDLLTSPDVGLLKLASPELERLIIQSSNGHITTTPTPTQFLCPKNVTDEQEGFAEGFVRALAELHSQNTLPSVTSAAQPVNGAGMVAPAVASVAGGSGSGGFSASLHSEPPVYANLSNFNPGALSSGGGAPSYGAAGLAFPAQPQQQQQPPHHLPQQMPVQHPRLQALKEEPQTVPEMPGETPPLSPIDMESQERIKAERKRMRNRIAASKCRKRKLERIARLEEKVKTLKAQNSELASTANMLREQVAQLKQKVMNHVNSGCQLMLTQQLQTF

Target: T1, SIX4 (sine oculis homeobox homolog 4) (UniProt Q9UIU6)
T1 sequence: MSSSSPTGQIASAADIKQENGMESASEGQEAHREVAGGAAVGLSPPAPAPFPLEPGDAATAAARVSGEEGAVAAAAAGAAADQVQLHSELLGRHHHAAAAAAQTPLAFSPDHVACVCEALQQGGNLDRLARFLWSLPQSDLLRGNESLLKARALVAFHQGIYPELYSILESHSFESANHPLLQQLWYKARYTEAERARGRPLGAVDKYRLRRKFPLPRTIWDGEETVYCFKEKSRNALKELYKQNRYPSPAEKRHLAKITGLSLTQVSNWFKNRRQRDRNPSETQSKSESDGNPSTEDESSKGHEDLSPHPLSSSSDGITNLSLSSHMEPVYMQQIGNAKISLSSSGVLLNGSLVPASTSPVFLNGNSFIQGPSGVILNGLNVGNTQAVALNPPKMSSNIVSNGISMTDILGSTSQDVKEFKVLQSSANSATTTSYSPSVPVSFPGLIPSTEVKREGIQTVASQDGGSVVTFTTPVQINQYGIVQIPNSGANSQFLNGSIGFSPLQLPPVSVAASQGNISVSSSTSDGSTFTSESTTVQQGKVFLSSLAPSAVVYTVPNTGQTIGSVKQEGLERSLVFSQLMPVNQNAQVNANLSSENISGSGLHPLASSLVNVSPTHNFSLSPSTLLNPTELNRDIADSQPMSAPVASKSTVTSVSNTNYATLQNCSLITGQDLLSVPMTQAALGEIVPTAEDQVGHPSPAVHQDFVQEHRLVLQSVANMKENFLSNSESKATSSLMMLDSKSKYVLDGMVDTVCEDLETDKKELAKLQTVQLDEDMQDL
Test: co-IP; cell lysates (immunoprecipitation lysis buffer) with specific antibodies or normal IgG (20 ug/mL) at 4 °C overnight; protein A/G magnetic beads 30 min at RT; five washes in 50 mM Tris, 150 mM NaCl, 0.2% Triton X-100, 0.2% Tween, pH 7.5; immunoblotting; input diluted 1/10

In the case of C-JUN (from UniProt P05412 1-331), the binding was “binds”.
